This note sets out measurements from article PMC13539228.

The assay addresses PipA, bait in pBT (bacterial two-hybrid) (P. aeruginosa). As to the kind of experiment: two-hybrid; bacterial two-hybrid (BacterioMatch II, lambda repressor-based): bait in pBT, prey in pTRG, co-transformed into the E. coli reporter strain; growth on M9 without histidine with 12.5 ug/ml streptomycin and 5 mM 3-AT.

No constants are given. Whether binding was seen depends on the method and setting. Binding calls can cover weak binding; strength is not graded here.

B1: PA2562, prey in pTRG (bacterial two-hybrid) (protein, UniProt Q9I0S3 1-170)
chain: MFNTRSVLALVVSLSLIGGTPAVLADPGNGKGNPHGNQMDGGKGNKGNKGNQGGHDNHGGPGNKGGGAGQKGNGGGNWDSGPRIDVGGVRVILGDNRGYWNPGPALPPGIQKNLARGKPLPPGIAKKLDGRLLGRLPHYDGYEWMQAGTDLLLVAVATGLIYEVLDNVLD
Regarding B1, the binding entry is “binds”.

B2: PA3196, prey in pTRG (bacterial two-hybrid) (protein, UniProt Q9HZ44 1-176)
chain: MKETLNELITLISTGCMGAEEIRRIADEAAQAYADPAGFLAANPDINYDDSFPIPLGEWVVVGSLPDIVLFQADTYAELFARIVASFGKDVAFNIKPKQLLKTEPLVALNRIQVQLSSMYPEKGGYVLVDFSEPLDDELQAVLVYTQDLPRVMALCVEAGIYAAPAYESLRDAEAE
For the molecule B2, the binding entry is reported as “no binding”.

B3: PA0937, prey in pTRG (bacterial two-hybrid) (protein, UniProt Q9I521 1-179)
chain: MSMSLRDQLLKAGLVNEKQAKQATKQKQKQQRLEHKNQVDKDDSQRQAAEQAKAEKLARDQELNRQQQEKAEKKAKAAQIKQLIEGTRLPKLESDDYYNFVDAKKVKRIAVNDLIRDKLSRGSLAIVSYDGRYEIVPRDAAVKIQERDPRRVVLLNVQSQEPDEDDPYKDYVVPDDLMW
With B3, the binding entry was “binds”.

B4: PA3309, prey in pTRG (bacterial two-hybrid) (protein, UniProt Q9HYT5 1-151)
chain: MYDRILVAVDGSPVSDRALEEAIKLAGLSGGKLRVITIVDSPLRHLPDYAVYYNPEPLREAALKAADDVLAKAREKVEASNVEGATFDRVCQERASEEIAERIELEAQASDADVVVMGTHGRRGMRRLMLGSVAEGLIRVASRPVLLVRDK
In the case of B4, the binding entry was “binds”.

B5: PA1899, prey in pTRG (bacterial two-hybrid) (protein, UniProt Q9I2J9 1-162)
chain: MREYQRLKGFTDNLELRRRNRATVEHYMRMKGAERLQRHSLFVEDGCAGNWTTESGEPLVFRGHESLRRLAEWLERCFPDWEWHNVRIFETEDPNHFWVECDGRGKALVPGYPQGYCENHYIHSFELENGRIKRNREFMNPMQKLRALGIAVPQIKRDGIPT
With B5, the binding entry is reported as “no binding”.
